From patent US5911991A, “Malarial binding site in duffy blood group protein” (New York Blood Center, Inc., priority 1996, dated 1999)
At least one peptide structure holds a part that was inferred or is arguable (an end, a ring closure or a residue). Ends that are not written are not given here.

System: Rubinstein anti-Fy6 antibody
Assay: Binding of the Rubinstein anti-Fy6 antibody to Duffy peptides (ELISA)
Set-up: species or system murine
Details: in words

| Sequence | binding by the Rubinstein anti-Fy6 antibody |
| --- | --- |
| AELSPSTENSSQL [HPEP13, AELSPSTENSSQL] | not |
| AELSPSTENSSQLDFEDVWNSSYGVNDSFPDGDYD [HPEP35] | binds |
| DFEDVWNSSYGVNDSFPDGDYD [HPEP22] | not |
